# Laboratory results published in article PMC11963761, “Structural basis for control of integrative and conjugative element excision and transfer by the oligomeric winged helix–turn–helix protein RdfS”.
# For at least one entry, the source does not settle the construct or the ends of the probe. Negatives hold for the conditions tested. At least one verdict was read from the data and is not stated in words by the source. Tags and fusion partners may be left off the protein sequences shown. The direction of at least one scale is not stated here.
# Target: T1, RdfS (Mesorhizobium japonicum R7A (ICEMlSymR7A)) (UniProt Q7AL96)
# T1 sequence (looked up): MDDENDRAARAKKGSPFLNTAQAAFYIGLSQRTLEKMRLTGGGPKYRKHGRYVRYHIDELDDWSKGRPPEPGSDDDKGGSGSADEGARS
# Test: SPR
# Details: 1 uM; SPR: ReDCaT on Biacore T200, 1 uM protein; temperature not given; recombinant protein; residues 1-89; protein details: N-terminal 6xHis removed after purification; label: 5' biotin on S36
Sequence,binding result,binding signal (% of attP 8 Rmax)
ATCCTCGCGGTTGCTTGTCCGAAGCGAAACGAGGACCATC / GATGGTCCTCGTTTCGCTTCGGACAAGCAACCGCGAGGATCCTACCCTACGTCCTCCTGC / GCAGGAGGACGTAGGGTAGG [PrdfS_6 (printed as second PrdfS_5)],no binding,–
CAACGAGGCGGGGGGCTGGT / ACCAGCCCCCCGCCTCGTTGCCTACCCTACGTCCTCCTGC / GCAGGAGGACGTAGGGTAGG [attP8_5 20-mer],–,< 45
CAAGCCCTCGCGCCGCAACTCGGCGCGGGGGTTCCCGCCG / CGGCGGGAACCCCCGCGCCGAGTTGCGGCGCGAGGGCTTGCCTACCCTACGTCCTCCTGC / GCAGGAGGACGTAGGGTAGG [PrdfS_1],no binding,–
CAATTTCGGCGCAGTTGGTCCAACGAGGCGGGGGGCTGGT / ACCAGCCCCCCGCCTCGTTGGACCAACTGCGCCGAAATTGCCTACCCTACGTCCTCCTGC / GCAGGAGGACGTAGGGTAGG [attP_8_M01],binds,–
CCCACGACGACCTCGTTCGC / GCGAACGAGGTCGTCGTGGGCCTACCCTACGTCCTCCTGC / GCAGGAGGACGTAGGGTAGG [PrdfS4_4 20-mer],no binding,–
CCGTCCCCACGACGACCTCG / CGAGGTCGTCGTGGGGACGGCCTACCCTACGTCCTCCTGC / GCAGGAGGACGTAGGGTAGG [PrdfS4_3 20-mer],no binding,–
CCTCGTTCGCCGATCCTCGCGGTTGCTTGTCCGAAGCGAA / TTCGCTTCGGACAAGCAACCGCGAGGATCGGCGAACGAGGCCTACCCTACGTCCTCCTGC / GCAGGAGGACGTAGGGTAGG [PrdfS_5],no binding,–
CGGGGGTTCCCGCCGACGCTCGCCCGAAGGGGCGGCGAAA / TTTCGCCGCCCCTTCGGGCGAGCGTCGGCGGGAACCCCCGCCTACCCTACGTCCTCCTGC / GCAGGAGGACGTAGGGTAGG [PrdfS_2],no binding,–
GAAATTCGGCGCAGTTGGTCCAACGAGGCGGGGGGCTGGT / ACCAGCCCCCCGCCTCGTTGGACCAACTGCGCCGAATTTCCCTACCCTACGTCCTCCTGC / GCAGGAGGACGTAGGGTAGG [attP_8_M04],binds,–
GAAGGGGCGGCGAAAACTCCCACCCGACTCTTCGCCCGTC / GACGGGCGAAGAGTCGGGTGGGAGTTTTCGCCGCCCCTTCCCTACCCTACGTCCTCCTGC / GCAGGAGGACGTAGGGTAGG [PrdfS_3],no binding,–
GAATATCGGCGCAGTTGGTCCAACGAGGCGGGGGGCTGGT / ACCAGCCCCCCGCCTCGTTGGACCAACTGCGCCGATATTCCCTACCCTACGTCCTCCTGC / GCAGGAGGACGTAGGGTAGG [attP_8_M05],binds,–
GAATTACGGCGCAGTTGGTCCAACGAGGCGGGGGGCTGGT / ACCAGCCCCCCGCCTCGTTGGACCAACTGCGCCGTAATTCCCTACCCTACGTCCTCCTGC / GCAGGAGGACGTAGGGTAGG [attP_8_M06],binds,–
GAATTTCCGCGCAGTTGGTCCAACGAGGCGGGGGGCTGGT / ACCAGCCCCCCGCCTCGTTGGACCAACTGCGCGGAAATTCCCTACCCTACGTCCTCCTGC / GCAGGAGGACGTAGGGTAGG [attP_8_M08],binds,–
GAATTTCGCCGCAGTTGGTCCAACGAGGCGGGGGGCTGGT / ACCAGCCCCCCGCCTCGTTGGACCAACTGCGGCGAAATTCCCTACCCTACGTCCTCCTGC / GCAGGAGGACGTAGGGTAGG [attP_8_M09],binds,–
GAATTTCGGCCCAGTTGGTCCAACGAGGCGGGGGGCTGGT / ACCAGCCCCCCGCCTCGTTGGACCAACTGGGCCGAAATTCCCTACCCTACGTCCTCCTGC / GCAGGAGGACGTAGGGTAGG [attP_8_M11],binds,–
GAATTTCGGCGCACTTGGTCCAACGAGGCGGGGGGCTGGT / ACCAGCCCCCCGCCTCGTTGGACCAAGTGCGCCGAAATTCCCTACCCTACGTCCTCCTGC / GCAGGAGGACGTAGGGTAGG [attP_8_M14],binds,–
GAATTTCGGCGCAGATGGTCCAACGAGGCGGGGGGCTGGT / ACCAGCCCCCCGCCTCGTTGGACCATCTGCGCCGAAATTCCCTACCCTACGTCCTCCTGC / GCAGGAGGACGTAGGGTAGG [attP_8_M15],binds,–
GAATTTCGGCGCAGTAGGTCCAACGAGGCGGGGGGCTGGT / ACCAGCCCCCCGCCTCGTTGGACCTACTGCGCCGAAATTCCCTACCCTACGTCCTCCTGC / GCAGGAGGACGTAGGGTAGG [attP_8_M16],binds,–
GAATTTCGGCGCAGTTCGTCCAACGAGGCGGGGGGCTGGT / ACCAGCCCCCCGCCTCGTTGGACGAACTGCGCCGAAATTCCCTACCCTACGTCCTCCTGC / GCAGGAGGACGTAGGGTAGG [attP_8_M17],binds,–
GAATTTCGGCGCAGTTGCTCCAACGAGGCGGGGGGCTGGT / ACCAGCCCCCCGCCTCGTTGGAGCAACTGCGCCGAAATTCCCTACCCTACGTCCTCCTGC / GCAGGAGGACGTAGGGTAGG [attP_8_M18],binds,–
GAATTTCGGCGCAGTTGGACCAACGAGGCGGGGGGCTGGT / ACCAGCCCCCCGCCTCGTTGGTCCAACTGCGCCGAAATTCCCTACCCTACGTCCTCCTGC / GCAGGAGGACGTAGGGTAGG [attP_8_M19],binds,–

Sequence,binding result,binding signal (% of attP 8 Rmax)
GAATTTCGGCGCAGTTGGTC / GACCAACTGCGCCGAAATTCCCTACCCTACGTCCTCCTGC / GCAGGAGGACGTAGGGTAGG [attP8_1 20-mer],–,< 45
GAATTTCGGCGCAGTTGGTCCAACCAGGCGGGGGGCTGGT / ACCAGCCCCCCGCCTGGTTGGACCAACTGCGCCGAAATTCCCTACCCTACGTCCTCCTGC / GCAGGAGGACGTAGGGTAGG [attP_8_M25],binds,–
GAATTTCGGCGCAGTTGGTCCAACGACGCGGGGGGCTGGT / ACCAGCCCCCCGCGTCGTTGGACCAACTGCGCCGAAATTCCCTACCCTACGTCCTCCTGC / GCAGGAGGACGTAGGGTAGG [attP_8_M27],binds,–
GAATTTCGGCGCAGTTGGTCCAACGAGCCGGGGGGCTGGT / ACCAGCCCCCCGGCTCGTTGGACCAACTGCGCCGAAATTCCCTACCCTACGTCCTCCTGC / GCAGGAGGACGTAGGGTAGG [attP_8_M28],binds,–
GAATTTCGGCGCAGTTGGTCCAACGAGGCCGGGGGCTGGT / ACCAGCCCCCGGCCTCGTTGGACCAACTGCGCCGAAATTCCCTACCCTACGTCCTCCTGC / GCAGGAGGACGTAGGGTAGG [attP_8_M30],binds,–
GAATTTCGGCGCAGTTGGTCCAACGAGGCGCGGGGCTGGT / ACCAGCCCCGCGCCTCGTTGGACCAACTGCGCCGAAATTCCCTACCCTACGTCCTCCTGC / GCAGGAGGACGTAGGGTAGG [attP_8_M31],binds,–
GAATTTCGGCGCAGTTGGTCCAACGAGGCGGCGGGCTGGT / ACCAGCCCGCCGCCTCGTTGGACCAACTGCGCCGAAATTCCCTACCCTACGTCCTCCTGC / GCAGGAGGACGTAGGGTAGG [attP_8_M32],binds,–
GAATTTCGGCGCAGTTGGTCCAACGAGGCGGGCGGCTGGT / ACCAGCCGCCCGCCTCGTTGGACCAACTGCGCCGAAATTCCCTACCCTACGTCCTCCTGC / GCAGGAGGACGTAGGGTAGG [attP_8_M33],binds,–
GAATTTCGGCGCAGTTGGTCCAACGAGGCGGGGCGCTGGT / ACCAGCGCCCCGCCTCGTTGGACCAACTGCGCCGAAATTCCCTACCCTACGTCCTCCTGC / GCAGGAGGACGTAGGGTAGG [attP_8_M34],binds,–
GAATTTCGGCGCAGTTGGTCCAACGAGGCGGGGGCCTGGT / ACCAGGCCCCCGCCTCGTTGGACCAACTGCGCCGAAATTCCCTACCCTACGTCCTCCTGC / GCAGGAGGACGTAGGGTAGG [attP_8_M35],binds,–
GAATTTCGGCGCAGTTGGTCCAACGAGGCGGGGGGCAGGT / ACCTGCCCCCCGCCTCGTTGGACCAACTGCGCCGAAATTCCCTACCCTACGTCCTCCTGC / GCAGGAGGACGTAGGGTAGG [attP_8_M37],binds,–
GAATTTCGGCGCAGTTGGTCCAACGAGGCGGGGGGCTCGT / ACGAGCCCCCCGCCTCGTTGGACCAACTGCGCCGAAATTCCCTACCCTACGTCCTCCTGC / GCAGGAGGACGTAGGGTAGG [attP_8_M38],binds,–
GAATTTCGGCGCAGTTGGTCCAACGAGGCGGGGGGCTGCT / AGCAGCCCCCCGCCTCGTTGGACCAACTGCGCCGAAATTCCCTACCCTACGTCCTCCTGC / GCAGGAGGACGTAGGGTAGG [attP_8_M39],binds,–
GAATTTCGGCGCAGTTGGTCCAACGAGGCGGGGGGCTGGA / TCCAGCCCCCCGCCTCGTTGGACCAACTGCGCCGAAATTCCCTACCCTACGTCCTCCTGC / GCAGGAGGACGTAGGGTAGG [attP_8_M40],binds,–
GAATTTCGGCGCAGTTGGTCCAACGAGGCGGGGGGGTGGT / ACCACCCCCCCGCCTCGTTGGACCAACTGCGCCGAAATTCCCTACCCTACGTCCTCCTGC / GCAGGAGGACGTAGGGTAGG [attP_8_M36],binds,–
GAATTTCGGCGCAGTTGGTCCAACGAGGGGGGGGGCTGGT / ACCAGCCCCCCCCCTCGTTGGACCAACTGCGCCGAAATTCCCTACCCTACGTCCTCCTGC / GCAGGAGGACGTAGGGTAGG [attP_8_M29],binds,–
GAATTTCGGCGCAGTTGGTCCAACGTGGCGGGGGGCTGGT / ACCAGCCCCCCGCCACGTTGGACCAACTGCGCCGAAATTCCCTACCCTACGTCCTCCTGC / GCAGGAGGACGTAGGGTAGG [attP_8_M26],binds,–
GAATTTCGGCGCAGTTGGTCCAAGGAGGCGGGGGGCTGGT / ACCAGCCCCCCGCCTCCTTGGACCAACTGCGCCGAAATTCCCTACCCTACGTCCTCCTGC / GCAGGAGGACGTAGGGTAGG [attP_8_M24],binds,–
GAATTTCGGCGCAGTTGGTCCATCGAGGCGGGGGGCTGGT / ACCAGCCCCCCGCCTCGATGGACCAACTGCGCCGAAATTCCCTACCCTACGTCCTCCTGC / GCAGGAGGACGTAGGGTAGG [attP_8_M23],binds,–
GAATTTCGGCGCAGTTGGTCCTACGAGGCGGGGGGCTGGT / ACCAGCCCCCCGCCTCGTAGGACCAACTGCGCCGAAATTCCCTACCCTACGTCCTCCTGC / GCAGGAGGACGTAGGGTAGG [attP_8_M22],binds,–
GAATTTCGGCGCAGTTGGTCGAACGAGGCGGGGGGCTGGT / ACCAGCCCCCCGCCTCGTTCGACCAACTGCGCCGAAATTCCCTACCCTACGTCCTCCTGC / GCAGGAGGACGTAGGGTAGG [attP_8_M21],binds,–
